Data as given in PubChem BioAssay AID1259307 (Sanger Institute, 2017)

- Test: 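siRNA kinome screen seeking kinases whose loss harms SW620 cells alone or with drugs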 (primary screen)
- Cells: SW620 colorectal cancer cells
- Reagents: siRNA pool against human genes
- Challenge: anchor drugs BYL719 at 1 µM, cetuximab at 5 µg/ml or trametinib at 10 nM, each beside a DMSO vehicle arm
- Measurement: 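Per-well viability versus non-targeting control pool, replicate-averaged, robust z-score from controls; synergy scores for BYL719 1 µM, cetuximab 5 µg/ml, trametinib 10 nM against DMSO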
- Scale: viability robust z-score, no drug and viability vs control, no drug: higher = more viable cells; synergy score with BYL719 and synergy score with cetuximab: higher = stronger synthetic lethality with the drug
- Call rule: 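Essential when the viability robust z-score without drug is under -3; synergy scores are ignored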
- Meaning of the calls: active = essential (lethal alone); inactive = no change alone
In all, the deposit lists 794 reagents; below is a random part of them. 15 of them (1.9%) count as active. 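Calls reflect lethality without any drug; synergy scores did not enter the calls.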 Unmarked entries are inactive. No viability above 1 is reported: the scale is capped. Not all columns of the deposit are shown. Not stated in the record: the amount of reagent, the time to read-out.

gene symbol | viability robust z-score, no drug | viability vs control, no drug | synergy score with BYL719 | synergy score with cetuximab
PDXK (pyridoxal kinase) | 0.736 | 1 | -0.00455 | 0
PNCK (pregnancy up-regulated nonubiquitous CaM kinase) | 0.309 | 0.961 | -0.0341 | 0.0145
RPS6KL1 (ribosomal protein S6 kinase like 1) | 0.256 | 0.956 | 0.0128 | -0.0443
DYRK4 (dual specificity tyrosine phosphorylation regulated kinase 4) | 0.5 | 0.978 | -0.0682 | 0.089
TWF1 (twinfilin actin binding protein 1) | 0.736 | 1 | -0.0919 | 0
MAP3K8 (mitogen-activated protein kinase kinase kinase 8) | -0.0228 | 0.93 | 0.0997 | 0.0337
ULK3 (unc-51 like kinase 3) | -0.634 | 0.874 | -0.0387 | -0.0176
CDKN1B (cyclin dependent kinase inhibitor 1B) | 0.439 | 0.973 | -0.108 | -0.0274
MARK1 (microtubule affinity regulating kinase 1) | 0.736 | 1 | -0.0493 | 0
MAST2 (microtubule associated serine/threonine kinase 2) | 0.467 | 0.975 | -0.0339 | -0.0248
MYLK2 (myosin light chain kinase 2) | -0.484 | 0.887 | -0.0345 | -0.104
NME1 (NME/NM23 nucleoside diphosphate kinase 1) | 0.294 | 0.959 | -0.0571 | 0.0135
LRRK2 (leucine rich repeat kinase 2) | 0.736 | 1 | -0.0159 | 0
MAPK7 (mitogen-activated protein kinase 7) | 0.736 | 1 | 0.0128 | 0
CHD9 (chromodomain helicase DNA binding protein 9) | 0.736 | 1 | -0.0919 | 0.0631
LATS2 (large tumor suppressor kinase 2) | 0.736 | 1 | -0.0567 | 0
PCK1 (phosphoenolpyruvate carboxykinase 1) | -3.03 (active) | 0.652 | -0.0453 | -0.104
CSNK1A1L (casein kinase 1 alpha 1 like) | 0.736 | 1 | -0.0919 | 0.0276
ROR2 (ROR family WNT receptor 2) | 0.736 | 1 | -0.0761 | 0.0136
TSSK6 (testis specific serine kinase 6) | 0.718 | 0.998 | -0.0542 | -0.00164

As entered above:
For “viability vs control, no drug”, MAP3K8 (mitogen-activated protein kinase kinase kinase 8) has 0.93
Result of RPS6KL1 (ribosomal protein S6 kinase like 1) in “synergy score with BYL719”: 0.0128
